# Melanoma cell counts after drug treatment

From a melanoma drug combination screen (doi:10.1371/journal.pone.0140310); values rounded.

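Human melanoma cells were exposed to a pair of drugs for 72 h in 1,536-well plates and read by automated microscopy after fixing and staining. Each value is the count of nuclei relative to DMSO-treated wells, in %, so that 100 equals the control. Concentrations were fixed for each drug; these are the higher of two levels. These are primary screening values without error estimates.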 An unselected part of the screen is shown. A dash means that no value is listed here.

Compounds and concentrations:
FH535: Cc1cc([N+](=O)[O-])ccc1NS(=O)(=O)c1cc(Cl)ccc1Cl at 5 µM
A-769662: N#Cc1c(O)c2c(-c3ccc(-c4ccccc4O)cc3)csc2[nH]c1=O at 10 µM
AS-252424: O=C1NC(=O)/C(=C/c2ccc(-c3ccc(F)cc3O)o2)S1 at 5 µM
embelin: CCCCCCCCCCCC1=C(O)C(=O)C=C(O)C1=O at 6 µM
L-779450: Oc1cc(-c2nc(-c3ccccc3)[nH]c2-c2ccncc2)ccc1Cl at 1 µM
NVP-TAE684: COc1cc(N2CCC(N3CCN(C)CC3)CC2)ccc1Nc1ncc(Cl)c(Nc2ccccc2S(=O)(=O)C(C)C)n1 at 0.4 µM
GW441756: Cn1cc(/C=C2\C(=O)Nc3cccnc32)c2ccccc21 at 2 µM
GW2580: COc1ccc(COc2ccc(Cc3cnc(N)nc3N)cc2OC)cc1 at 5 µM
KU-55933: O=c1cc(-c2cccc3c2Sc2ccccc2S3)oc(N2CCOCC2)c1 at 5 µM
U73122: COc1ccc2c(c1)CCC1C2CCC2(C)C(NCCCCCCN3C(=O)C=CC3=O)CCC12 (centres unmarked) at 2 µM
KU-0063794: COc1ccc(-c2ccc3c(N4CCOCC4)nc(N4C[C@@H](C)O[C@@H](C)C4)nc3n2)cc1CO at 0.1 µM
TCS401: O=C(O)C(=O)Nc1sc2c(c1C(=O)O)CCNC2 at 8.33 µM
T0901317: O=S(=O)(c1ccccc1)N(CC(F)(F)F)c1ccc(C(O)(C(F)(F)F)C(F)(F)F)cc1 at 7 µM
Src-I1: COc1cc2ncnc(Nc3ccc(Oc4ccccc4)cc3)c2cc1OC at 10 µM
dorsomorphin: c1cc(-c2cnn3cc(-c4ccc(OCCN5CCCCC5)cc4)cnc23)ccn1 at 2 µM

| Pair | A375 | A101D | COLO 829 | G-361 | COLO 800 | A2058 | COLO 792 | C32 | 501mel | IPC-298 |
|---|---|---|---|---|---|---|---|---|---|---|
| AS-252424 + Src-I1 | 189 | 90.7 | 121 | 61.1 | 59.1 | 93.1 | 55.6 | 114 | - | 72.6 |
| embelin + Src-I1 | 186 | 95.4 | 105 | 76.9 | 149 | 113 | 66.9 | 98.3 | 105 | 80.9 |
| A-769662 + FH535 | 85.2 | 79.9 | 92.4 | 35.7 | 65.9 | 81.4 | 71.9 | 87.3 | 76.7 | 52.1 |
| GW2580 + FH535 | 97.0 | 62.8 | 72.7 | 26.6 | 51.6 | 84.6 | 69.6 | 101 | 61.0 | 41.9 |
| GW441756 + A-769662 | 151 | 98.0 | 108 | 96.6 | 71.2 | 122 | 96.9 | 90.2 | 121 | 88.5 |
| dorsomorphin + FH535 | 70.1 | 64.2 | 83.2 | 36.6 | 59.8 | 73.5 | 52.4 | 59.6 | 44.7 | 48.8 |
| A-769662 + Src-I1 | 164 | 90.1 | 123 | 74.0 | 101 | 95.5 | 77.8 | 93.0 | 87.8 | 77.9 |
| AS-252424 + KU-55933 | 150 | 122 | 128 | 78.5 | 201 | 110 | 85.0 | 86.1 | 98.4 | 104 |
| NVP-TAE684 + Src-I1 | 93.2 | 47.1 | 90.8 | 33.8 | 55.9 | 71.2 | 48.3 | 107 | 62.3 | 70.9 |
| U73122 + T0901317 | 84.9 | 78.9 | 87.0 | 74.3 | 99.3 | 95.6 | 117 | 93.0 | 77.3 | 81.0 |
| NVP-TAE684 + L-779450 | 75.8 | 72.0 | 62.8 | 51.6 | 71.6 | 60.0 | 86.7 | 61.6 | 71.3 | 73.6 |
| dorsomorphin + KU-0063794 | 77.1 | 86.9 | 77.0 | 48.8 | 95.2 | 85.7 | 59.3 | 67.3 | 70.2 | 62.9 |
| embelin + KU-0063794 | 102 | 101 | 80.7 | 68.6 | 80.3 | 89.4 | 72.0 | 86.4 | 80.1 | 65.3 |
| KU-55933 + NVP-TAE684 | 96.8 | 83.6 | 103 | 67.8 | 72.6 | 69.2 | 77.1 | 71.8 | 67.0 | 92.5 |
| Src-I1 + GW2580 | 163 | 32.0 | 93.4 | 36.3 | 110 | 101 | 79.6 | 103 | 61.0 | 63.7 |
| T0901317 + Src-I1 | 129 | 40.1 | 97.3 | 24.7 | 89.5 | 96.0 | 52.2 | 88.0 | 51.1 | 63.3 |
| A-769662 + U73122 | 93.1 | 63.6 | 71.4 | 66.0 | 90.5 | 76.7 | 99.7 | 80.8 | 89.4 | 87.5 |
| FH535 + AS-252424 | 90.5 | 67.7 | 84.1 | 40.5 | 70.2 | 96.5 | 59.4 | 102 | - | 49.0 |
| L-779450 + GW441756 | 68.6 | 61.8 | 75.9 | 60.2 | 75.6 | 100 | 105 | 78.9 | 58.4 | 74.7 |
| dorsomorphin + Src-I1 | 107 | 56.2 | 89.7 | 29.6 | 75.6 | 76.2 | 47.4 | 77.6 | 42.9 | 52.8 |
| AS-252424 + GW2580 | 123 | 95.7 | 97.1 | 78.7 | 92.4 | 97.3 | 76.2 | 130 | 82.4 | 79.3 |
| AS-252424 + TCS401 | 161 | 125 | 99.7 | 74.5 | 68.7 | 109 | 78.4 | 105 | 96.3 | 96.8 |
| FH535 + GW441756 | 109 | 68.4 | 89.3 | 55.9 | 58.4 | 91.9 | 76.5 | 95.1 | 88.3 | 51.3 |
| GW441756 + TCS401 | 210 | 80.9 | 102 | 82.1 | 71.3 | 133 | 91.1 | 100 | 118 | 92.1 |
| embelin + FH535 | 97.3 | 63.5 | 67.8 | 43.2 | 125 | 75.1 | 77.4 | 97.6 | 75.7 | 48.6 |
| A-769662 + GW2580 | 99.5 | 147 | 88.1 | 98.1 | 141 | 103 | 101 | 109 | 82.4 | 108 |
| TCS401 + GW2580 | 93.4 | 84.1 | 98.9 | 78.3 | 61.9 | 86.5 | 83.9 | 91.4 | 73.0 | 89.5 |
| GW441756 + dorsomorphin | 90.9 | 73.5 | 79.1 | 44.9 | 72.5 | 73.0 | 77.1 | 60.9 | 43.2 | 83.4 |

Some entries from above, unchanged:

| Pair | A375 | A101D | COLO 829 | G-361 | COLO 800 | A2058 | COLO 792 | C32 | 501mel | IPC-298 |
|---|---|---|---|---|---|---|---|---|---|---|
| dorsomorphin + FH535 | 70.1 | 64.2 | 83.2 | 36.6 | 59.8 | 73.5 | 52.4 | 59.6 | 44.7 | 48.8 |
| A-769662 + GW2580 | 99.5 | 147 | 88.1 | 98.1 | 141 | 103 | 101 | 109 | 82.4 | 108 |
| GW441756 + A-769662 | 151 | 98.0 | 108 | 96.6 | 71.2 | 122 | 96.9 | 90.2 | 121 | 88.5 |